Among all 320,000 compounds or so, about 2,100 (0.66%) were called active. The inconclusive results got no clear call from the source; some entries with a clear call stand among them for comparison. Calls follow the shape of the dose curve; as a rule, active = well fitted inhibition curve with a large enough effect in the signal ratio, with a control signal flat (not every such curve was filed as active); inconclusive = small, poorly fitted or top-dose-only effect, or effect the other way, or a change in a side signal; inactive = flat fitted curve, though single readings scatter; the % refers to the signal ratio. Potencies of inconclusive entries are doubtful fits and often do not repeat.
Experiment: qHTS Assay for Lipid Storage Modulators in Drosophila S3 Cells
Settings: BODIPY lipid droplet fluorescence, 18-24 h, cells fed with added oleic acid; lipid storage change, negative = inhibition: at 46.1 µM (top of the series) unless noted
Procedure, shortened: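 Laser-scanning cytometry quantifies lipid droplet accumulation (500–530 nm total intensity; droplet/cell object ratio) in oleic acid-fed (400 uM added) Drosophila S3 cells treated with a concentration series. 20 uM Triacsin C defined 100% inhibition.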
% is scaled to controls: 0 for no effect and ±100 for the full control effect; potency is read from the fitted curve at half-maximal effect.

| SMILES | lipid storage change, negative = inhibition | Potency |
| --- | --- | --- |
| Brc1cccc(OCCCN2CCCCCC2)c1 | inconclusive: -33.7% |  |
| COc1ccc(NC(=O)Nc2ccc(C(=O)N3CCOCC3)cc2)cc1OC | inactive |  |
| O=C(NNc1ccccc1)C(=O)NNS(=O)(=O)c1ccc([N+](=O)[O-])cc1 | inconclusive: 13.8% |  |
| Cc1cccc(CSc2ncnc3ccccc23)c1 | inconclusive: 7.83% |  |
| CC(=O)Nc1ccc(-n2c(=O)c3ccccc3c3ccccc3c2=O)cc1 | inconclusive: -19.9% |  |
| CCn1nc(C(=O)Nc2ccc(Cl)c(S(=O)(=O)N3CCOCC3)c2)c2ccccc2c1=O | inconclusive |  |
| Cc1ccc(NC(=O)CCSc2ccccn2)cc1 | inconclusive: 26.3% |  |
| O=C1CNC(=O)/C1=C\N1CCCCC1 | inconclusive: -21.7% |  |
| Cc1ccc(S(=O)(=O)N2CCCC2c2nc3ccccc3s2)cc1 (stereo not given) | inconclusive: 41.1% |  |
| Cc1ccc(NS(=O)(=O)c2cccc(C(=O)NCC(c3ccco3)N3CCCCC3)c2)cc1 (stereo not given) | inconclusive: -32.7% |  |
| COc1ccccc1C=NC(CO)C(O)c1ccc([N+](=O)[O-])cc1 (stereo not given) | inconclusive: 23.8% |  |
| COc1ccc(OCc2cc(C(=O)NCC3CCOCC3)no2)c(Cl)c1 | inconclusive: 2.67% |  |
| COCCOC(=O)C1=C(C)N(Cc2ccccc2)C(=O)NC1c1ccc(OC)cc1 (stereo not given) |  | inconclusive: 29100 nM [activator, single point] |
| CCOC(=O)c1cc(-c2ccccc2)n(CC(=O)O)c1C | inconclusive: 17.9% |  |
| CC(C)NC(=O)C1c2ccccc2Oc2ccccc21 |  | inconclusive: 13000 nM [activator, partial curve, poor fit] |
| CC(C)c1ccc2c(c1)[C@H]1OCC[C@H]1[C@@H](c1cccs1)N2 | inactive |  |
| O=C(NCc1ccco1)C(c1cccnc1)N(C(=O)Cn1nnc2ccccc21)c1ccccc1 (stereo not given) | inconclusive: -52.2% |  |
| CN1C(C(=O)NCc2ccccc2)CC2Cn3c(nc4cc(Cl)c(Cl)cc43)C21 (stereo not given) | inactive |  |
| CNC(=S)Nc1cc(C(F)(F)F)ccc1Cl |  | inconclusive: 116 nM [activator, partial curve, poor fit] |
| COc1ccc2c(c1)C(c1ccc(C)o1)=NNC(c1cccnc1)=N2 | inconclusive: -27.4% |  |

| SMILES | lipid storage change, negative = inhibition | Potency |
| --- | --- | --- |
| COc1cccc(CC(=O)OCC(=O)N(C)CC(=O)Nc2ccccc2Cl)c1 |  | inconclusive: 3260 nM [activator, single point] |
| CCOC(=O)N/N=C/c1ccc(Oc2ccccc2)cc1 | inconclusive: 53.5% |  |
| CN(CC(=O)Nc1ccc(S(=O)(=O)N2CCCC2)cc1)Cc1ccc(Cl)cc1Cl |  | inconclusive: 7310 nM [falling, partial curve, poor fit] |
| O=C(O)/C(=C\c1cccc(O)c1)c1ccc(S(=O)(=O)N2CCCC2)s1 |  | inconclusive: 411 nM [activator, full curve] |
| Cc1ccc(C(C)C)c(OCc2ccc(C(=O)N/N=C/c3ccc(O)c(O)c3)cc2)c1 |  | inconclusive: 5.2 nM [falling, full curve, poor fit] |
| Cc1cc2cc(CNC(=O)c3ccc(S(=O)(=O)N4CCCCC4)cc3)ccc2n1C | inconclusive: 18.2% |  |
| Cn1cc(S(=O)(=O)N2CCc3ccccc3C2)c(=O)n(C)c1=O |  | inconclusive: 4.6 nM [falling, full curve, poor fit] |
| Cc1nn(CC(=O)NCc2ccc(OC(C)C)cc2)c(=O)c2cc3occc3n12 |  | inconclusive: 3660 nM [falling, partial curve, poor fit] |
| Cc1ccccc1-c1nc(CS(=O)CC(=O)NCc2ccccn2)c(C)o1 (stereo not given) |  | inconclusive: 1160 nM [falling, partial curve] |
| O=C(Nn1cnnc1)c1cc2c(s1)CCCC2 |  | inconclusive: 651 nM [falling, full curve, poor fit] |
| CC(C)c1c(O)c2c(n(-c3ccccc3)c1=O)CCCC2 |  | inconclusive: 29100 nM [activator, single point] |
| Brc1ccc(-c2nnc3n2CCCCC3)cc1 | inconclusive: 46% |  |
| Cc1ccc(S(=O)(=O)N2CCN(C(=O)CN3CCCSc4ccccc43)CC2)cc1 | inactive |  |
| O=C1SCC(c2ccccc2)=NN1Cc1ccccc1 | inconclusive: 14.7% |  |
| COc1ccc(OCCC(=O)OCC(=O)NC(=O)NC(C)C)cc1 |  | inconclusive: 4.6 nM [falling, full curve, poor fit] |
| CCCSc1nc(-n2ncc(C#N)c2N)c2c3c(sc2n1)CCC(C)C3 (stereo not given) |  | inconclusive: 1640 nM [rising, partial curve] |
| COc1ccc(C(=O)N(CCCO)Cc2cc3c(C)ccc(C)c3[nH]c2=O)cc1OC | inconclusive: 6.59% |  |
| O=C(CN1C(=O)NC2(CCc3ccccc32)C1=O)c1ccccc1 (stereo not given) | inactive |  |
| O=C1CC2(CCN(C(=O)c3ccc(Br)cc3)CC2)Oc2ccccc21 | inactive |  |
| CCCn1c(SC(C)C(=O)NC2CCCC2)n[nH]c1=O (stereo not given) |  | inconclusive: 1460 nM [falling, partial curve] |

Part of the list above in order of molecular weight, falling:

| SMILES | lipid storage change, negative = inhibition | Potency |
| --- | --- | --- |
| CCCn1c(SC(C)C(=O)NC2CCCC2)n[nH]c1=O (stereo not given) |  | inconclusive: 1460 nM [falling, partial curve] |
| O=C1SCC(c2ccccc2)=NN1Cc1ccccc1 | inconclusive: 14.7% |  |
| O=C(Nn1cnnc1)c1cc2c(s1)CCCC2 |  | inconclusive: 651 nM [falling, full curve, poor fit] |
